Measured data: PubChem BioAssay AID1671195 (Yale University, 2021)
Here is an unselected part of about 22,000 reagents tested. Over the whole deposit, about 1,510 (6.9%) got an active call. 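Active includes knockdowns raising or lowering LDL uptake; positive z-scores mean more uptake, negative mean less.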 Entries without a mark were called inactive.

Test: 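Genes whose knockdown alters LDL uptake in liver cancer cells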 (primary screen)
System: human Huh7 hepatoma cells
Knock-down reagent: siRNA pool against human genes, 18 nM
Duration: about 2 to 2.5 days of knockdown, then 8 h LDL uptake
Treatment: DiI-labelled LDL at 30 µg/ml for 8 h, in lipoprotein-deficient serum medium
Measurement: 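Fluorescent LDL signal imaged in cells, scaled to the plate median, robust z-score for each replicate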
Direction: robust z-score: higher = more LDL uptake after knockdown
Call rule: 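a gene counts as active if at least two replicate z-scores exceed ±2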

| gene symbol | PubChem SID | robust z-score, replicate 1 | robust z-score, replicate 2 | robust z-score, replicate 3 |
| --- | --- | --- | --- | --- |
| PELI3 | SID442898686 | -0.233 | -0.89 | -0.455 |
| LOC285770 (retired record) | SID442896207 | -0.341 | -0.177 | -0.228 |
| LINC00937 | SID442892777 | -0.104 | 0.176 | 0.304 |
| LOC393078 (retired record) | SID442901415 | -0.79 | -0.878 | -1.02 |
| GBGT1 | SID442901779 | -1.52 | 0.219 | -1.58 |
| SYT6 | SID442884944 | 1.79 | 1.88 | 1.64 |
| ATP8B4 | SID442898505 | -0.2 | -0.636 | -0.687 |
| TMEM179 | SID442885161 | 1.08 | 2.19 | 1.67 |
| TMEM160 | SID442890328 | -0.186 | -0.131 | 1.61 |
| CNOT12 | SID442900143 | -0.609 | -0.816 | -0.732 |
| EIF1 | SID442888574 | 1.93 | -0.66 | 0.823 |
| KIFC2 | SID442900133 | -0.318 | -1.25 | -0.588 |
| RUFY3 | SID442883567 | 3.11 (active) | 2.42 | 2.45 |
| CHRM3 | SID442884490 | -2.57 (active) | -2.02 | -2.04 |
| DCUN1D5 | SID442900186 | -1.18 | -0.853 | -0.148 |
| METTL25B | SID442894420 | 0.0474 | -0.91 | 0.676 |
| DCP2 | SID442889196 | -0.194 | 0.434 | 1.55 |
| FBP2 | SID442901224 | -0.871 | -1.15 | -0.591 |
| ASPH | SID442901392 | -1.06 | -0.987 | -0.63 |
| COX16 | SID442891124 | 0.0331 | 0.381 | 0.568 |
| TP53INP1 | SID442883093 | 6.45 (active) | 9.24 | 9.39 |
| LOC441861 (retired record) | SID442904034 | -1.48 | -1.35 | -1.57 |
| SFSWAP | SID442901008 | -0.832 | 0.164 | -1.85 |
| MGMT | SID442887371 | 1.12 | 0.591 | 1.06 |
| CPVL | SID442896564 | -0.148 | -0.829 | 0.115 |
| GRIA1 | SID442891973 | 0.721 | -0.00095 | -0.0499 |

The list goes on (6 carried over from the part before).
| gene symbol | PubChem SID | robust z-score, replicate 1 | robust z-score, replicate 2 | robust z-score, replicate 3 |
| --- | --- | --- | --- | --- |
| TP53INP1 | SID442883093 | 6.45 (active) | 9.24 | 9.39 |
| LOC441861 (retired record) | SID442904034 | -1.48 | -1.35 | -1.57 |
| SFSWAP | SID442901008 | -0.832 | 0.164 | -1.85 |
| MGMT | SID442887371 | 1.12 | 0.591 | 1.06 |
| CPVL | SID442896564 | -0.148 | -0.829 | 0.115 |
| GRIA1 | SID442891973 | 0.721 | -0.00095 | -0.0499 |
| TMEM126A | SID442887864 | 0.176 | 1.53 | 0.774 |
| MPV17L | SID442901847 | -0.776 | -1.12 | -1.02 |
| ABCD4 | SID442900935 | -0.856 | -0.759 | -0.87 |
| CLINT1 | SID442889201 | 0.327 | 0.753 | 0.707 |
| VSTM2B | SID442892550 | 0.109 | -0.0171 | 0.364 |
| ZNF613 | SID442883497 | 3.33 (active) | 2.36 | 2.66 |
| TRHDE | SID442896187 | 0.061 | -0.377 | -0.424 |
| N4BP2L2 | SID442890847 | -0.242 | 1.7 | -0.368 |
| N4BP2L2 | SID442892305 | 0.415 | -0.356 | 0.492 |
| LRRTM3 | SID442888660 | 1.05 | 0.529 | 0.469 |
| PPP1R8 | SID442897125 | -1.19 | -0.124 | 0.267 |
| NAF1 | SID442889292 | 1.49 | -0.507 | 0.761 |
| SRSF1 | SID442893768 | -0.163 | -0.13 | 0.33 |
| CHKA | SID442897305 | -0.41 | -0.0379 | -0.665 |
| RC3H1 | SID442887351 | 1.62 | 1.34 | -0.166 |
| RPL35 | SID442904618 | -1.52 | -2.43 | -1.31 |
| PVALEF | SID442897395 | -0.696 | -0.177 | -0.269 |
| SPCS3 | SID442903765 | -1.49 | -1.27 | -1.4 |
| MESD | SID442887321 | 1.34 | 0.575 | 0.901 |
| MAPK15 | SID442883950 | 2.66 (active) | 2.15 | 1.56 |
